# Data reported in article PMC6203814.
# Protein sequences, listed by entry. Tags and fused reporters are not part of them. Residues count along the entry.
# UniProt P32121: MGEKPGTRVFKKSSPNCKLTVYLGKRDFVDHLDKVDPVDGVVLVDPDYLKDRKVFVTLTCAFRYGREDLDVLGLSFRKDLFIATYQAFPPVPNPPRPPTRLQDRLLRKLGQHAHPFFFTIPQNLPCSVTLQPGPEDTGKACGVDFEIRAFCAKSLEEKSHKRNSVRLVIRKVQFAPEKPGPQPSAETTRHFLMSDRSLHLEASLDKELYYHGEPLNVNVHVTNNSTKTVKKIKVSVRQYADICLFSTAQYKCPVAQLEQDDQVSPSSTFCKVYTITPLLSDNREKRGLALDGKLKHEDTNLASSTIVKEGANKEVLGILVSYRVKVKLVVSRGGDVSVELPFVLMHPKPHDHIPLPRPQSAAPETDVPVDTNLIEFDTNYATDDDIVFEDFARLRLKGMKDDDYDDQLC
# UniProt Q4ZJM9, residues 16-238: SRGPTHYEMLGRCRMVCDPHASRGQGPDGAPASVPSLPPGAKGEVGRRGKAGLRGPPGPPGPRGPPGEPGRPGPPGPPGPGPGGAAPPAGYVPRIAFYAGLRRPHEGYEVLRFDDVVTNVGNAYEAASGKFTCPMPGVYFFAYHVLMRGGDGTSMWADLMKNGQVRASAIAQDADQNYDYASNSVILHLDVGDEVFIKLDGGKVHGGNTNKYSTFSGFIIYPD
# These are yes or no findings as the source states them, for the method shown. In cells and extracts the contact can be indirect. Some binding calls cover weakened binding; strength is not graded here. Where a sequence is shown, tags or fusion partners need not be part of it.
# B1: Full length human Flag-BAI3-mVenus (receptor, UniProt O60242 25-1522)
# chain: AQDFWCSTLVKGVIYGSYSVSEMFPKNFTNCTWTLENPDPTKYSIYLKFSKKDLSCSNFSLLAYQFDHFSHEKIKDLLRKNHSIMQLCNSKNAFVFLQYDKNFIQIRRVFPTNFPGLQKKGEEDQKSFFEFLVLNKVSPSQFGCHVLCTWLESCLKSENGRTESCGIMYTKCTCPQHLGEWGIDDQSLILLNNVVLPLNEQTEGCLTQELQTTQVCNLTREAKRPPKEEFGMMGDHTIKSQRPRSVHEKRVPQEQADAAKFMAQTGESGVEEWSQWSTCSVTCGQGSQVRTRTCVSPYGTHCSGPLRESRVCNNTALCPVHGVWEEWSPWSLCSFTCGRGQRTRTRSCTPPQYGGRPCEGPETHHKPCNIALCPVDGQWQEWSSWSQCSVTCSNGTQQRSRQCTAAAHGGSECRGPWAESRECYNPECTANGQWNQWGHWSGCSKSCDGGWERRIRTCQGAVITGQQCEGTGEEVRRCNEQRCPAPYEICPEDYLMSMVWKRTPAGDLAFNQCPLNATGTTSRRCSLSLHGVAFWEQPSFARCISNEYRHLQHSIKEHLAKGQRMLAGDGMSQVTKTLLDLTQRKNFYAGDLLMSVEILRNVTDTFKRASYIPASDGVQNFFQIVSNLLDEENKEKWEDAQQIYPGSIELMQVIEDFIHIVGMGMMDFQNSYLMTGNVVASIQKLPAASVLTDINFPMKGRKGMVDWARNSEDRVVIPKSIFTPVSSKELDESSVFVLGAVLYKNLDLILPTLRNYTVINSKIIVVTIRPEPKTTDSFLEIELAHLANGTLNPYCVLWDDSKTNESLGTWSTQGCKTVLTDASHTKCLCDRLSTFAILAQQPREIIMESSGTPSVTLIVGSGLSCLALITLAVVYAALWRYIRSERSIILINFCLSIISSNILILVGQTQTHNKSICTTTTAFLHFFFLASFCWVLTEAWQSYMAVTGKIRTRLIRKRFLCLGWGLPALVVATSVGFTRTKGYGTDHYCWLSLEGGLLYAFVGPAAAVVLVNMVIGILVFNKLVSRDGILDKKLKHRAGQMSEPHSGLTLKCAKCGVVSTTALSATTASNAMASLWSSCVVLPLLALTWMSAVLAMTDKRSILFQILFAVFDSLQGFVIVMVHCILRREVQDAFRCRLRNCQDPINADSSSSFPNGHAQIMTDFEKDVDIACRSVLHKDIGPCRAATITGTLSRISLNDDEEEKGTNPEGLSYSTLPGNVISKVIIQQPTGLHMPMSMNELSNPCLKKENSELRRTVYLCTDDNLRGADMDIVHPQERMMESDYIVMPRSSVNNQPSMKEESKMNIGMETLPHERLLHYKVNPEFNMNPPVMDQFNMNLEQHLAPQEHMQNLPFEPRTAVKNFMASELDDNAGLSRSETGSTISMSSLERRKSRYSDLDFEKVMHTRKRHMELFQELNQKFQTLDRFRDIPNTSSMENPAPNKNPWDTFKNPSEYPHYTTINVLDTEAKDALELRPAEWEKCLNLPLDVQEGDFQTEV
# B2: V5-BAI3^CUB (domain or fragment, UniProt O60242 30-159)
# chain: CSTLVKGVIYGSYSVSEMFPKNFTNCTWTLENPDPTKYSIYLKFSKKDLSCSNFSLLAYQFDHFSHEKIKDLLRKNHSIMQLCNSKNAFVFLQYDKNFIQIRRVFPTNFPGLQKKGEEDQKSFFEFLVLN
# How the values were obtained:
# Myc-β-Arrestin2 [1] = target: Myc-β-Arrestin2 (UniProt P32121); assay: co-IP; Myc-β-Arrestin2 and Flag-BAI3 with increasing amounts of co-expressed V5-Stabilin-2
# Myc-β-Arrestin2 [2] = target: Myc-β-Arrestin2 (UniProt P32121); assay: co-IP; immunoprecipitation of Myc-β-Arrestin2 from transfected cells, blot for Flag-BAI3^WT or Flag-BAI3^∆N; no Stabilin-2 co-expressed
# HA-C1qL4^WT = HA-C1qL4^WT (UniProt Q4ZJM9); assay: co-IP; anti-HA immunoprecipitation of HA-C1qL4 (WT or GW), blot for V5-tagged soluble BAI3 extracellular domain or its fragments
Binder,binding (Myc-β-Arrestin2 [1]),binding (Myc-β-Arrestin2 [2]),binding (HA-C1qL4^WT)
B1,binds,no binding (condition: without co-expressed Stabilin-2),–
B2,–,–,binds
